Laboratory results reported in PubChem BioAssay AID2685 (National Center for Advancing Translational Sciences (NCATS), 2010).
The other results are listed elsewhere or left out. Further columns of the screen follow, without active or inactive calls. Compounds called inactive in the main read-out are mostly missing here. Potencies come from curve fits of mixed quality, noted in brackets.

Experiment: qHTS Assay for Lipid Storage Modulators in Drosophila S3 Cells;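 on cell number change: cells counted by Cell Tracker Red CMTPX staining in the red channel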
Conditions: BODIPY lipid droplet fluorescence, 18-24 h; for cell number change: measured here: cell count max response, cells fed with added oleic acid
How it was run: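 Laser-scanning cytometry quantifies lipid droplet accumulation (500–530 nm total intensity; droplet/cell object ratio) in oleic acid-fed (400 uM added) Drosophila S3 cells treated with a concentration series. 20 uM Triacsin C defined 100% inhibition.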

[1] = measured here: lipid fluorescence (Fed channel) AC50, cells fed with added oleic acid
[2] = measured here: cell number channel AC50, cells fed with added oleic acid

Structure (SMILES)	cell number change	AC50 [1]	AC50 [2]
CC(C)(C)c1ccc(C(=O)N/N=C/c2ccc(OCCCF)cc2)cc1	-17.2%		
O=C(c1cc(COc2c(F)cccc2F)on1)N1CCC(c2ccncc2)CC1	-21.8%	29.1 µM [falling, single point]	
CCN(C1CCCCC1)S(=O)(=O)c1ccc(S(=O)(=O)NCCc2ccncc2)cc1	-7.22%	6.51 µM [rising, single point]	
O=C(C1CCCC1)N1CCN(S(=O)(=O)c2ccc(F)c(F)c2F)CC1	-4.76%		2.06 µM [rising, partial curve, poor fit]
CCOC(=O)C1CC2CC(C1)CN(C(=O)C1CCCCC1)C2 (centres undefined)	-16%		
CCOCCCNCC(=O)N1CCN(S(=O)(=O)c2ccc(C)cc2)CC1	-91.8%	29.1 µM [falling, partial curve]	29.1 µM [falling, single point]
C=CCS/C(=N\n1cnc2ccccc2c1=O)N(CC)CC	0.378%	6.51 µM [falling, single point]	
COc1ccc(NS(=O)(=O)c2ccc(S(=O)(=O)N3CCCC3)cc2)cc1Cl	78.3%	0.116 µM [falling, full curve, poor fit]	
COCc1nnc(NC(=O)C2CCN(C(=O)c3ccco3)CC2)s1	21.4%		0.291 µM [rising, full curve, poor fit]
CC(=O)c1ccc(S(=O)(=O)N(C)CCCC(=O)NCc2ccc3c(c2)OCO3)cc1	-4.06%	6.51 µM [falling, single point]	0.00461 µM [falling, full curve, poor fit]
Fc1ccc(C2=Nn3c(Cc4ccccc4F)nnc3SC2)cc1	16.6%	20.6 µM [rising, single point]	
Cc1c(Br)ccc(NC(=O)c2ccccc2[N+](=O)[O-])c1C	-35.8%		
CN(C)c1ccc(/C=N/c2cc(-c3ccccc3)nn2-c2ccccc2)cc1	83%	2.06 µM [rising, partial curve]	1.64 µM [rising, full curve]
O=C(O)CNS(=O)(=O)c1ccc2c(c1)Cc1cc(S(=O)(=O)NCC(=O)O)ccc1-2	27%		
O=C(COc1ccc([N+](=O)[O-])cc1)Nc1cccc2nsnc12	35.6%		29.1 µM [rising, single point]
CCOc1ccc(NC(N)=O)cc1OCC	41.4%	0.092 µM [falling, full curve, poor fit]	11.6 µM [rising, partial curve, poor fit]
CC(C)c1ccc[n+](-c2nc([O-])sc2C=O)c1	-4.56%	0.58 µM [falling, single point]	
Cc1ccc(S(=O)(=O)N2[C@@H](c3ccccc3F)C(C(=O)O)=CC[C@H]2c2cccc(Cl)c2)cc1	31.4%	7.31 µM [rising, partial curve, poor fit]	0.13 µM [rising, full curve, poor fit]

A draw from above in order of count of non-hydrogen atoms, largest number first:
Structure (SMILES)	cell number change	AC50 [1]	AC50 [2]
COc1ccc(NS(=O)(=O)c2ccc(S(=O)(=O)N3CCCC3)cc2)cc1Cl	78.3%	0.116 µM [falling, full curve, poor fit]	
CCOCCCNCC(=O)N1CCN(S(=O)(=O)c2ccc(C)cc2)CC1	-91.8%	29.1 µM [falling, partial curve]	29.1 µM [falling, single point]
O=C(COc1ccc([N+](=O)[O-])cc1)Nc1cccc2nsnc12	35.6%		29.1 µM [rising, single point]

Continued:

Structure (SMILES)	cell number change	AC50 [1]	AC50 [2]
C=CCNc1ncnc2c1[nH]c1ccc(C)cc12	-104%	29.1 µM [falling, single point]	18.4 µM [falling, single point]
CCOCCn1c(=NC(=O)c2cc(Cl)sc2Cl)sc2cc(S(N)(=O)=O)ccc21	14.2%	2.31 µM [rising, partial curve]	3.26 µM [rising, single point]
CCOc1ccc(Cn2c3ccc(OC)cc3c3nc4ccccc4nc32)cc1	1.88%	20.6 µM [rising, single point]	
COC(=O)c1ccc(CNC(=O)c2ccc(S(=O)(=O)N(C)c3ccccc3OC)cc2)cc1	-18.8%	29.1 µM [falling, single point]	
COc1ccc(C2NC(=O)NC(C)=C2[N+](=O)[O-])cc1 (centres undefined)	5.96%	29.1 µM [rising, single point]	
COc1cc2ccccc2cc1C(=O)Nc1ccc(S(=O)(=O)Nc2cc(C)on2)cc1	-9.36%	4.11 µM [rising, partial curve]	3.26 µM [rising, single point]
CCOc1ccc(C(=O)Nc2cccc(-c3ccc4nncn4n3)c2)cc1	9.64%	0.082 µM [rising, single point]	
CCN(CC)c1ccc(/C=C/C(=O)c2cccnc2)cc1	95.7%		29.1 µM [rising, partial curve, poor fit]
O=C(Nc1nccs1)c1ccc(Br)cc1	13.5%	29.1 µM [falling, single point]	
CNC(=O)c1c(NC(=O)c2ccc(S(=O)(=O)N(C)c3ccccc3)cc2)sc2c1CCN(C(C)C)C2		6.31 µM [falling, full curve]	
O=C(CSc1cn(CCNC(=O)c2cccs2)c2ccccc12)NC1CCCCC1	18.5%	6.51 µM [rising, single point]	
CC(OC(=O)CCCOc1ccccc1)C(=O)Nc1ccc(Cl)cn1 (centres undefined)	-11.1%		
CC1CC(C)(C)n2c(O)c(N=NC(N)=S)c3cccc1c32 (centres undefined)	-55.4%	7.31 µM [falling, partial curve]	9.2 µM [falling, partial curve, poor fit]
CCCC(=O)Nc1ccc2nc(SCC(=O)Nc3ccc(N4CCOCC4)c(Cl)c3)sc2c1		9.2 µM [rising, partial curve]	4.11 µM [rising, single point]
COc1ccc(-c2nc(CN3CCC(c4ccccc4)CC3)c(C)o2)cc1OC	4.66%	25.9 µM [rising, single point]	
Cc1onc(-c2c(Cl)cccc2Cl)c1C(=O)Nc1c(C)n(C)n(-c2ccccc2)c1=O	11.8%	29.1 µM [rising, single point]	
O=C1CCCc2[nH]nc(-c3cccnc3)c21	77.3%		5.17 µM [rising, partial curve]
CCN(CC)S(=O)(=O)c1ccc(OC)c(NC(=O)c2ccc(N3CCCC3=O)cc2)c1	-5.22%		
